Data published in the supplement of paper PMC10849652.
The list shows a part of the results.

By UniProt entry, the sequences of proteins in these tests, tags left out. Where a name states a change or a piece, a line headed by the entry shows the natural chain unless it says otherwise.
UniProt Q86WV6: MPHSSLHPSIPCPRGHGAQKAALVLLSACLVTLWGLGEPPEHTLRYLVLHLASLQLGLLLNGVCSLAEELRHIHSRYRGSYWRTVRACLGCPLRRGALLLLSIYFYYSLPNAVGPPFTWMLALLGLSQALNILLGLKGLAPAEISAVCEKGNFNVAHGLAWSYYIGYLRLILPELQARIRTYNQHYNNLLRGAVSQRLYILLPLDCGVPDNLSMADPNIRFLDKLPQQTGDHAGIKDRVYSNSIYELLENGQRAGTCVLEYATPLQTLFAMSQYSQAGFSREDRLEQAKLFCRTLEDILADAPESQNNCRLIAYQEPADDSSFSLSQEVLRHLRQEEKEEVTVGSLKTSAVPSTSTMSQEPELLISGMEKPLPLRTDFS
UniProt Q6PL24: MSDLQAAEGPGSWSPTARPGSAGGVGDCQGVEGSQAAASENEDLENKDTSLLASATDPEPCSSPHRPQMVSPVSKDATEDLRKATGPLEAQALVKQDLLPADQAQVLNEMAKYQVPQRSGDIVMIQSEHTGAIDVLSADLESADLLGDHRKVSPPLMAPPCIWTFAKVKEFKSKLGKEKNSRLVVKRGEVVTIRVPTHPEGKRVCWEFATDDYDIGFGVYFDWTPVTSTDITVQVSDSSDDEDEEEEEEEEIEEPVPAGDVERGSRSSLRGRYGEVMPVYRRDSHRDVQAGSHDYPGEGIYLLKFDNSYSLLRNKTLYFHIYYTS
UniProt O60220: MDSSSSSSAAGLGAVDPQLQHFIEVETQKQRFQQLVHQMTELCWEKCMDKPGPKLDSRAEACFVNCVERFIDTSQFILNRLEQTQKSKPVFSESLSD
UniProt Q5TEJ8: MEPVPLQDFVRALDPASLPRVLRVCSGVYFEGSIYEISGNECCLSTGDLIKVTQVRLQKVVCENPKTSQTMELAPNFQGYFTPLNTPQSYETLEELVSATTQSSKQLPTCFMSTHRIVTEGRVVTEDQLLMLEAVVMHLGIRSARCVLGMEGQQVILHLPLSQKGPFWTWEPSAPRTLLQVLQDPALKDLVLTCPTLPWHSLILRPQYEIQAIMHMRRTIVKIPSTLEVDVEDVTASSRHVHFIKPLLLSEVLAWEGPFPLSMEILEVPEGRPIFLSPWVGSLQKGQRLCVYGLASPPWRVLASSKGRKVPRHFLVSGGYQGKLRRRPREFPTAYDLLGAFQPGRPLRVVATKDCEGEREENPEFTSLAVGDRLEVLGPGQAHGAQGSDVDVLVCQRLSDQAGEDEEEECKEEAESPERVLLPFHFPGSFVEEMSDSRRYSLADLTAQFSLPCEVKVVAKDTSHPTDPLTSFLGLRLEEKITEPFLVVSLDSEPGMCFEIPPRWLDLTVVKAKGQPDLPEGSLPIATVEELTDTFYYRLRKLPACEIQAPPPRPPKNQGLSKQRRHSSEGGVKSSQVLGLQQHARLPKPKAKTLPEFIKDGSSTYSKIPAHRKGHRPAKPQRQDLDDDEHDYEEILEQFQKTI
UniProt Q9BVK6: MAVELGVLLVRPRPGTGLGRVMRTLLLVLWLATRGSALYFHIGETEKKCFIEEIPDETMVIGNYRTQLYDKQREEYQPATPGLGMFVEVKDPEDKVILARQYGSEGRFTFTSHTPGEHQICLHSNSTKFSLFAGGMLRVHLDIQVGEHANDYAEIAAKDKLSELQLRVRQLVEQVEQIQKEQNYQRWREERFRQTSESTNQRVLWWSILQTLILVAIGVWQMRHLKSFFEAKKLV
UniProt Q9H7F4: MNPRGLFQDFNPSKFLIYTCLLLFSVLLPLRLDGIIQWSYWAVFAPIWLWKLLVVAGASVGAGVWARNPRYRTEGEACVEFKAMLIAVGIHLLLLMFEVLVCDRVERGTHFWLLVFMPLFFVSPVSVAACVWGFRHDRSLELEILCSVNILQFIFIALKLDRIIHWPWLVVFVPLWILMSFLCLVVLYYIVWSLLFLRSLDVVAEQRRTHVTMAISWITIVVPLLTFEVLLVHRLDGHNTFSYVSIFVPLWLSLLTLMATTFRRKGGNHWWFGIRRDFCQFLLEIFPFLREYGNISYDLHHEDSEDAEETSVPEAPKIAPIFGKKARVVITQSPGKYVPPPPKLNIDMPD
UniProt Q3ZCQ8: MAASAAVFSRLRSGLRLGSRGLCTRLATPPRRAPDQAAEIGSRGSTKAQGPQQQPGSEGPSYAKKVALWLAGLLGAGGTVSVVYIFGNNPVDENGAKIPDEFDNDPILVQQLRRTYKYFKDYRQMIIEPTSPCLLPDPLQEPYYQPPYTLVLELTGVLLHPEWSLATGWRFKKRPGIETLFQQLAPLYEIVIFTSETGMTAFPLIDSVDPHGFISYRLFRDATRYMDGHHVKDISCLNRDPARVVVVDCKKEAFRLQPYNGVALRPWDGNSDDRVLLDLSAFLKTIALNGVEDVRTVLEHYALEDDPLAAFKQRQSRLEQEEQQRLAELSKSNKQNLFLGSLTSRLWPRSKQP
UniProt Q9NWX6: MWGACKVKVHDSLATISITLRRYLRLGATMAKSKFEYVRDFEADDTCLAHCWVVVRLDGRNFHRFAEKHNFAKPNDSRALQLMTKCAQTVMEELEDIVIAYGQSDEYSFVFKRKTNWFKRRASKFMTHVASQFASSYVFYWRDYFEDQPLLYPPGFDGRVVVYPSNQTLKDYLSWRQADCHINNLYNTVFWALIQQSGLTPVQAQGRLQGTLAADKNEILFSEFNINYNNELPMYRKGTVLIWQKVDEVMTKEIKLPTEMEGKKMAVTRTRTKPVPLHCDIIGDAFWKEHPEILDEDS
UniProt P31483: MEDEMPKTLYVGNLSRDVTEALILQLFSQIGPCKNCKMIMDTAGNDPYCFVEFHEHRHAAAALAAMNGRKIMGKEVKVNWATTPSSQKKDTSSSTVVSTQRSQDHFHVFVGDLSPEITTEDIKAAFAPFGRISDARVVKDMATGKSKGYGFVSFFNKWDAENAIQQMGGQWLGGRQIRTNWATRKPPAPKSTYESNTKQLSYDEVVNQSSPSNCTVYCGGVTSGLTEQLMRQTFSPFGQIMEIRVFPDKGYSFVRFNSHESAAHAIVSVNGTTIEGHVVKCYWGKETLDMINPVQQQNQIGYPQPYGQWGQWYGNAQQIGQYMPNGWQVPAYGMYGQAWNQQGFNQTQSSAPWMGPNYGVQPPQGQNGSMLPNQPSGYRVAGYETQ
UniProt Q96DC7: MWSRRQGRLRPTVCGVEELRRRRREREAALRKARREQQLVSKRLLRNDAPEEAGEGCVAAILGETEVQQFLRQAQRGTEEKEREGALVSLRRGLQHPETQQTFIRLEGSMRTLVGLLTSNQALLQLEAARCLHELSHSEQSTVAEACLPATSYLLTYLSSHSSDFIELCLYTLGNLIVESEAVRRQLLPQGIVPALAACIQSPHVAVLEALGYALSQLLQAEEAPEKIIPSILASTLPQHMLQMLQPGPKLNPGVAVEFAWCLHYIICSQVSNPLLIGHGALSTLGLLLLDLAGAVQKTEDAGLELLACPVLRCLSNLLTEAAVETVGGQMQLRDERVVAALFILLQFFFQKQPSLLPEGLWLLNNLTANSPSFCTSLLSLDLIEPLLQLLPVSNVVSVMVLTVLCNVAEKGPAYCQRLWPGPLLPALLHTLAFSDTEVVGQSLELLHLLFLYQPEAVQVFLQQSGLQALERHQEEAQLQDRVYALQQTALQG
UniProt Q9Y4G6: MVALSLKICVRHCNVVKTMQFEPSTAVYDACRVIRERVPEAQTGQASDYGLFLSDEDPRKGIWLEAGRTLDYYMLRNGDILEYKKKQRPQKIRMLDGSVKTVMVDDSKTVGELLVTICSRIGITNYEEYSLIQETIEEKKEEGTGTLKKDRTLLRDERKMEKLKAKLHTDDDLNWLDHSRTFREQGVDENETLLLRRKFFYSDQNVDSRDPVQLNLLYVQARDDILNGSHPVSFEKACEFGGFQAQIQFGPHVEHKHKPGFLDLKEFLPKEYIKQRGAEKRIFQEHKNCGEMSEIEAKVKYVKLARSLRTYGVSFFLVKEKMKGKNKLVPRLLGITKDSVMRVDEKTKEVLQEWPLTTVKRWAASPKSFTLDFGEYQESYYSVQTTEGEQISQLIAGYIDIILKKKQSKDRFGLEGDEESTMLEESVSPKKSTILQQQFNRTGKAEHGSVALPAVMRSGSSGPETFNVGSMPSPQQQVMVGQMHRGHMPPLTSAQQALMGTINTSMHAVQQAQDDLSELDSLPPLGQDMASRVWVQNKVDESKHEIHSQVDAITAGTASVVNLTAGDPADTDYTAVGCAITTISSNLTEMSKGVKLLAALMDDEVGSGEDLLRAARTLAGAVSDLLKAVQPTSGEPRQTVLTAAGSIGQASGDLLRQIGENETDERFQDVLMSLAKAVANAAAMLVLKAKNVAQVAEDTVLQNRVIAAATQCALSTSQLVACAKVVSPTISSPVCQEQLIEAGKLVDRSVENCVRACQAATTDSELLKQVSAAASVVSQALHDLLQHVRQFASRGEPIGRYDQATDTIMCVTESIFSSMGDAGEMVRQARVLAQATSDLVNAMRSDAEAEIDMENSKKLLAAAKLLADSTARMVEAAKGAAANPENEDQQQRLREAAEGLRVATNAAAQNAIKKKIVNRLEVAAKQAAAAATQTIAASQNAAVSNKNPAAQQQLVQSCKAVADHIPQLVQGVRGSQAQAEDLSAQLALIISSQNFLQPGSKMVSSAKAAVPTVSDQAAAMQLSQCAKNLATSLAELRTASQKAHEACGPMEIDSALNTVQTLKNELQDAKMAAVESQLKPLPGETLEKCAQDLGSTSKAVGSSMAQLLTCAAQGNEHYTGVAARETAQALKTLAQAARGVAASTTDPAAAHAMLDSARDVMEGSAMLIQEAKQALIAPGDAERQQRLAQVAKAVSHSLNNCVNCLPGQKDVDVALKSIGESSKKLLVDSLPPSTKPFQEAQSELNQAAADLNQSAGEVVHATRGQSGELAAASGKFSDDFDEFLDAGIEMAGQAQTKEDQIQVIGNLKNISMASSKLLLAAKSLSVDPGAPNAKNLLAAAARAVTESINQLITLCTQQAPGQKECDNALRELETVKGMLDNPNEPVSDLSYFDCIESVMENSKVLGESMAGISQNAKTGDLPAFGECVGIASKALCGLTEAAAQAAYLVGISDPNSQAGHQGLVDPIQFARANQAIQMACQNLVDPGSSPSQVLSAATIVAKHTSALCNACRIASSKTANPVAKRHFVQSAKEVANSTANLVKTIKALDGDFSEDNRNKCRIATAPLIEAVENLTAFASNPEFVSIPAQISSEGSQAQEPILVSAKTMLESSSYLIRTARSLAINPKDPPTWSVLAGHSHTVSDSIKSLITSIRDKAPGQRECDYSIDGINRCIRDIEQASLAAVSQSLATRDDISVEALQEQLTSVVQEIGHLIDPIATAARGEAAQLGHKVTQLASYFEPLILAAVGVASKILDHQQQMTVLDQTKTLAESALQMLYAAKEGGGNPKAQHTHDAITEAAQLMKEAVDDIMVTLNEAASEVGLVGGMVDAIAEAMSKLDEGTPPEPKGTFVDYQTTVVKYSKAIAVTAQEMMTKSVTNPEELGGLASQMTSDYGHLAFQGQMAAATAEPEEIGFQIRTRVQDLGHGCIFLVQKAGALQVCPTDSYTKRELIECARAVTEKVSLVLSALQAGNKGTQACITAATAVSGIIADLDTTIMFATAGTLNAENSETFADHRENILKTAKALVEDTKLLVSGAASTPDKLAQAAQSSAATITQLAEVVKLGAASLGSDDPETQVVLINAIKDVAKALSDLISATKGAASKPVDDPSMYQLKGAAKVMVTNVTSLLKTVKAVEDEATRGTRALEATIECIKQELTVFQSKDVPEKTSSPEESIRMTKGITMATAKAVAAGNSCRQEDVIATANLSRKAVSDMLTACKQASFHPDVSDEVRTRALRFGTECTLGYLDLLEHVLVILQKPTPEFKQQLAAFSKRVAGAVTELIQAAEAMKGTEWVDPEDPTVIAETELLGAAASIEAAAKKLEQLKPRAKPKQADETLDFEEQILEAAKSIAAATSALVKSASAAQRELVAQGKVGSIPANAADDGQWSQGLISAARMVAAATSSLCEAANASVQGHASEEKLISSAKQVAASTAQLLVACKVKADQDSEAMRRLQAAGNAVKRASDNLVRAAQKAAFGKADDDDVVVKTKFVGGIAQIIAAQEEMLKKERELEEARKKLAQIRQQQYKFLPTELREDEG
UniProt Q9BVW5: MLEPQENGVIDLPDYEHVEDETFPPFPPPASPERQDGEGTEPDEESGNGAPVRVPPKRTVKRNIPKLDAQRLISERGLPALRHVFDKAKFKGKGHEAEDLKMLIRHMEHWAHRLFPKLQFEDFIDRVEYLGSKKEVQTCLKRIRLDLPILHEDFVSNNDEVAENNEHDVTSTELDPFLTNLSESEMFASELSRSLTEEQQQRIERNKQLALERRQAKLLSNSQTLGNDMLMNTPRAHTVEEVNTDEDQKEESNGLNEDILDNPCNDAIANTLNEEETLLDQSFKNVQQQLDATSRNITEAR

Tests used:
Assay in all cases: log2 fold change, soluble protein after heating vs DMSO (PISA); higher = thermal stabilisation; K562 lysate, 10 uM; active = over 0.2 and 3.5 SD of the protein, either way, in both replicates (recomputed)
vemurafenib = compound: CCCS(=O)(=O)Nc1ccc(F)c(C(=O)c2c[nH]c3ncc(-c4ccc(Cl)cc4)cc23)c1F [vemurafenib]
Method in brief: (§1)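 The values are log-two fold changes in thermal stability compared with solvent controls and come from duplicates. They were obtained by TMTpro 16plex LC-MS/MS, with channel sums equalised, on the supernatant after 21,000xg for 90 min. That supernatant came from crude K562 extract at 1 mg/mL protein treated with 10 μM compound for 30 min, heated for 3 min across 48°C-58°C, pooled and brought to 0.5% NP-40 at 4°C.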

[1] = compound: CCCS(=O)(=O)Nc1ccc(F)c(C(=O)c2c[nH]c3ncc(Cl)cc23)c1F
Method in brief: as §1

barasertib = compound: CCN(CCCOc1ccc2c(Nc3cc(CC(=O)Nc4cccc(F)c4)[nH]n3)ncnc2c1)CCOP(=O)(O)O [barasertib]
Method in brief: as §1

[2] = compound: CC[C@@H]1C(=O)N(C)c2cnc(Nc3ccc(C(=O)NC4CCN(C)CC4)cc3OC)nc2N1C1CCCC1
Method in brief: as §1

volasertib = compound: CC[C@@H]1C(=O)N(C)c2cnc(Nc3ccc(C(=O)N[C@H]4CC[C@H](N5CCN(CC6CC6)CC5)CC4)cc3OC)nc2N1C(C)C [volasertib]
Method in brief: as §1

[3] = compound: CCn1c(C(=O)N(C2CC2)C2CC2)cc2c3c(ncn3C)c(Nc3cc(C)n(C)n3)nc21
Method in brief: as §1

[4] = compound: CCn1cc(-c2ccnc3[nH]c(-c4cccc(CN(C)C)c4)cc23)c(-c2ccc(NC(=O)N(C)C)cc2)n1
Method in brief: as §1

[5] = compound: CN1CCC(CNc2ccc3ncc(-c4cccc(OC(F)(F)F)c4)n3n2)CC1
Method in brief: as §1

saracatinib = compound: CN1CCN(CCOc2cc(OC3CCOCC3)c3c(Nc4c(Cl)ccc5c4OCO5)ncnc3c2)CC1 [saracatinib]
Method in brief: as §1

sotrastaurin = compound: CN1CCN(c2nc(C3=C(c4c[nH]c5ccccc45)C(=O)NC3=O)c3ccccc3n2)CC1 [sotrastaurin]
Method in brief: as §1

alvocidib = compound: CN1CC[C@H](c2c(O)cc(O)c3c(=O)cc(-c4ccccc4Cl)oc23)[C@H](O)C1 [alvocidib]
Method in brief: as §1

Tubastatin A = compound: CN1CCc2c(c3ccccc3n2Cc2ccc(C(=O)NO)cc2)C1 [Tubastatin A]
Method in brief: as §1

[6] = compound: CNC(=O)C1=CC=CC=C1NC2=NC(=NC=C2Cl)NC3=C(C=C(C=C3)N4CCOCC4)OC
Method in brief: as §1

defactinib = compound: CNC(=O)c1ccc(Nc2ncc(C(F)(F)F)c(NCc3nccnc3N(C)S(C)(=O)=O)n2)cc1 [defactinib]
Method in brief: as §1

[7] = compound: CNc1nc(-c2ccc3c(N)n[nH]c3c2)cc(N2C[C@@H](C(=O)NC3CCCCC3)CC[C@H]2C)n1
Method in brief: as §1

encorafenib = compound: COC(=O)N[C@@H](C)CNc1nccc(-c2cn(C(C)C)nc2-c2cc(Cl)cc(NS(C)(=O)=O)c2F)n1 [encorafenib]
Method in brief: as §1

[8] = compound: COC(=O)[C@H](CCSC)NC(=O)C1=C(C=C(C=C1)NC[C@H](CS)N)C2=CC=CC=C2
Method in brief: as §1

alisertib = compound: COc1cc(Nc2ncc3c(n2)-c2ccc(Cl)cc2C(c2c(F)cccc2OC)=NC3)ccc1C(=O)O [alisertib]
Method in brief: as §1

[9] = compound: COc1cc2nc(-c3cc(F)ccc3O)nc(N[C@@H]3CNC[C@H]3C(C)(C)O)c2cc1OC
Method in brief: as §1

gefitinib = compound: COc1cc2ncnc(Nc3ccc(F)c(Cl)c3)c2cc1OCCCN1CCOCC1 [gefitinib]
Method in brief: as §1

Measured: log2 fold change

TJP1 isoform 2 (UniProt Q07157)
inactive: vemurafenib 0.023 | [1] 0 | barasertib -0.003 | [2] 0.064 | volasertib -0.01 | [3] -0.045 | [4] -0.046 | [5] 0.057 | saracatinib 0.014 | sotrastaurin 0.014 | alvocidib -0.011 | Tubastatin A 0.047 | [6] -0.02 | defactinib -0.018 | [7] 0.043 | encorafenib -0.013 | [8] 0.011 | alisertib -0.007 | [9] 0.007 | gefitinib -0.017

TMEM173 (UniProt Q86WV6)
inactive: vemurafenib 0.041 | [1] 0.006 | barasertib 0.107 | [2] 0.124 | volasertib 0.119 | [3] 0.021 | [4] -0.018 | [5] 0.038 | saracatinib 0.056 | sotrastaurin 0.006 | alvocidib -0.04 | Tubastatin A -0.1 | [6] -0.029 | defactinib 0.04 | [7] 0.096 | encorafenib 0.062 | [8] -0.118 | alisertib -0.135 | [9] -0.041 | gefitinib 0.073

TIMELESS (UniProt Q9UNS1)
inactive: vemurafenib 0.035 | [1] 0.031 | barasertib 0.039 | [2] -0.058 | volasertib 0.043 | [3] 0.013 | [4] -0.094 | [5] -0.07 | saracatinib 0.035 | sotrastaurin 0 | alvocidib -0.017 | Tubastatin A -0.149 | [6] 0.031 | defactinib 0 | [7] -0.039 | encorafenib 0.039 | [8] 0.105 | alisertib -0.011 | [9] 0.049 | gefitinib 0.017

TMED8 (UniProt Q6PL24)
inactive: vemurafenib 0.049 | [1] -0.02 | barasertib -0.065 | [2] -0.012 | volasertib -0.032 | [3] 0.055 | [4] -0.027 | [5] 0.033 | saracatinib 0.024 | sotrastaurin 0.011 | alvocidib -0.022 | Tubastatin A -0.138 | [6] 0.073 | defactinib 0.001 | [7] -0.065 | encorafenib -0.015 | [8] 0.03 | alisertib -0.017 | [9] 0.006 | gefitinib 0.007

TIMM8A (UniProt O60220)
inactive: vemurafenib 0.026 | [1] -0.091 | barasertib -0.019 | [2] -0.223 | volasertib -0.006 | [3] 0.037 | [4] 0.028 | [5] -0.007 | saracatinib 0.084 | sotrastaurin -0.009 | alvocidib 0.072 | Tubastatin A 0.1 | [6] 0.12 | defactinib -0.005 | [7] 0.03 | encorafenib 0.087 | [8] 0.038 | alisertib -0.027 | [9] -0.033 | gefitinib -0.245

THEMIS2 (UniProt Q5TEJ8)
inactive: vemurafenib -0.004 | [1] 0.11 | barasertib -0.052 | [2] 0.016 | volasertib 0.132 | [3] 0.015 | [4] -0.019 | [5] 0.004 | saracatinib 0.01 | sotrastaurin -0.016 | alvocidib -0.036 | Tubastatin A -0.069 | [6] 0.024 | defactinib 0.028 | [7] 0 | encorafenib -0.027 | [8] 0.023 | alisertib 0.052 | [9] -0.159 | gefitinib 0.025

Quoted from above (3 entries):
TMED8 (UniProt Q6PL24)
inactive: vemurafenib 0.049 | [1] -0.02 | barasertib -0.065 | [2] -0.012 | volasertib -0.032 | [3] 0.055 | [4] -0.027 | [5] 0.033 | saracatinib 0.024 | sotrastaurin 0.011 | alvocidib -0.022 | Tubastatin A -0.138 | [6] 0.073 | defactinib 0.001 | [7] -0.065 | encorafenib -0.015 | [8] 0.03 | alisertib -0.017 | [9] 0.006 | gefitinib 0.007

TIMM8A (UniProt O60220)
inactive: vemurafenib 0.026 | [1] -0.091 | barasertib -0.019 | [2] -0.223 | volasertib -0.006 | [3] 0.037 | [4] 0.028 | [5] -0.007 | saracatinib 0.084 | sotrastaurin -0.009 | alvocidib 0.072 | Tubastatin A 0.1 | [6] 0.12 | defactinib -0.005 | [7] 0.03 | encorafenib 0.087 | [8] 0.038 | alisertib -0.027 | [9] -0.033 | gefitinib -0.245

THEMIS2 (UniProt Q5TEJ8)
inactive: vemurafenib -0.004 | [1] 0.11 | barasertib -0.052 | [2] 0.016 | volasertib 0.132 | [3] 0.015 | [4] -0.019 | [5] 0.004 | saracatinib 0.01 | sotrastaurin -0.016 | alvocidib -0.036 | Tubastatin A -0.069 | [6] 0.024 | defactinib 0.028 | [7] 0 | encorafenib -0.027 | [8] 0.023 | alisertib 0.052 | [9] -0.159 | gefitinib 0.025

The list goes on.

TMED9 (UniProt Q9BVK6)
inactive: vemurafenib 0.02 | [1] 0.02 | barasertib -0.021 | [2] 0.064 | volasertib 0.025 | [3] 0.017 | [4] 0.015 | [5] 0.02 | saracatinib -0.037 | sotrastaurin 0.034 | alvocidib -0.009 | Tubastatin A 0.046 | [6] -0.016 | defactinib -0.061 | [7] -0.039 | encorafenib 0.02 | [8] -0.036 | alisertib -0.023 | [9] -0.055 | gefitinib 0

TMEM185B (UniProt Q9H7F4)
inactive: vemurafenib -0.148 | [1] 0.016 | barasertib -0.109 | [2] -0.089 | volasertib -0.076 | [3] 0.006 | [4] 0.091 | [5] -0.069 | saracatinib 0.08 | sotrastaurin -0.026 | alvocidib 0.097 | Tubastatin A 0.184 | [6] 0.046 | defactinib 0.057 | [7] -0.077 | encorafenib -0.031 | [8] -0.058 | alisertib -0.066 | [9] 0.01 | gefitinib 0.117

TIMM50 isoform 2 (UniProt Q3ZCQ8)
inactive: vemurafenib -0.005 | [1] 0.002 | barasertib -0.002 | [2] 0.015 | volasertib -0.014 | [3] -0.003 | [4] -0.018 | [5] -0.001 | saracatinib -0.004 | sotrastaurin -0.003 | alvocidib 0.015 | Tubastatin A 0.011 | [6] -0.024 | defactinib -0.017 | [7] 0.008 | encorafenib 0.017 | [8] -0.028 | alisertib 0.063 | [9] -0.019 | gefitinib 0.012

TGS1 (UniProt Q96RS0)
inactive: vemurafenib -0.011 | [1] 0.029 | barasertib 0.015 | [2] -0.013 | volasertib -0.02 | [3] 0.002 | [4] -0.097 | [5] 0.05 | saracatinib 0 | sotrastaurin 0.028 | alvocidib -0.034 | Tubastatin A -0.071 | [6] 0.019 | defactinib 0.043 | [7] -0.049 | encorafenib 0.034 | [8] -0.045 | alisertib 0.013 | [9] -0.042 | gefitinib 0.021

THG1L (UniProt Q9NWX6)
inactive: vemurafenib 0.019 | [1] -0.005 | barasertib -0.009 | [2] 0.024 | volasertib -0.023 | [3] 0.018 | [4] 0.035 | [5] -0.027 | saracatinib 0.012 | sotrastaurin 0.014 | alvocidib -0.023 | Tubastatin A -0.036 | [6] -0.008 | defactinib -0.001 | [7] 0.004 | encorafenib -0.007 | [8] 0.029 | alisertib 0.007 | [9] 0.039 | gefitinib -0.031

TIA1 (UniProt P31483)
inactive: vemurafenib 0.025 | [1] 0.005 | barasertib -0.048 | [2] -0.044 | volasertib 0.038 | [3] 0.02 | [4] -0.027 | [5] 0.005 | saracatinib 0.039 | sotrastaurin -0.026 | alvocidib 0.005 | Tubastatin A 0.031 | [6] 0.021 | defactinib -0.009 | [7] 0.146 | encorafenib 0.054 | [8] -0.052 | alisertib 0.042 | [9] -0.024 | gefitinib 0.002

TMCO6 isoform 2 (UniProt Q96DC7)
inactive: vemurafenib -0.013 | [1] 0.055 | barasertib 0.019 | [2] 0.045 | volasertib -0.031 | [3] -0.017 | [4] 0.41 | [5] -0.181 | saracatinib 0.011 | sotrastaurin -0.066 | alvocidib -0.077 | Tubastatin A -0.079 | [6] 0.04 | defactinib 0.053 | [7] -0.031 | encorafenib 0.063 | [8] -0.058 | alisertib -0.132 | [9] -0.097 | gefitinib 0.106

TLN2 (UniProt Q9Y4G6)
inactive: vemurafenib -0.02 | [1] -0.008 | barasertib 0.121 | [2] 0.022 | volasertib 0.008 | [3] 0.001 | [4] 0.259 | [5] -0.025 | saracatinib -0.005 | sotrastaurin 0 | alvocidib -0.016 | Tubastatin A 0.002 | [6] 0 | defactinib -0.023 | [7] 0.006 | encorafenib -0.007 | [8] 0.026 | alisertib 0.012 | [9] -0.01 | gefitinib -0.008

THNSL1 (UniProt Q8IYQ7)
inactive: vemurafenib 0.047 | [1] -0.001 | barasertib 0.03 | [2] 0.016 | volasertib -0.037 | [3] 0.036 | [4] 0.012 | [5] -0.024 | saracatinib -0.007 | sotrastaurin -0.01 | alvocidib -0.018 | Tubastatin A 0.009 | [6] -0.129 | defactinib -0.036 | [7] -0.115 | encorafenib 0.011 | [8] -0.032 | alisertib -0.033 | [9] 0.018 | gefitinib 0.024

TIPIN (UniProt Q9BVW5)
inactive: vemurafenib -0.005 | [1] 0.017 | barasertib 0.042 | [2] -0.022 | volasertib -0.028 | [3] 0 | [4] -0.072 | [5] 0.06 | saracatinib 0.045 | sotrastaurin 0.028 | alvocidib -0.057 | Tubastatin A -0.039 | [6] 0.019 | defactinib -0.028 | [7] -0.086 | encorafenib 0.032 | [8] -0.039 | alisertib 0.029 | [9] -0.045 | gefitinib 0.003
